The record followed here is PubChem BioAssay AID2685 (National Center for Advancing Translational Sciences (NCATS), 2010).

Molecules are shown by their SMILES. The list shows a part of the results. The main result of the screen is listed elsewhere. These columns were measured beside it and carry no call. Compounds called inactive in the main read-out are mostly missing here. Words in brackets tell the shape of the fitted curve; partial curves, single points and poor fits give uncertain potencies.

This experiment is described as follows: qHTS Assay for Lipid Storage Modulators in Drosophila S3 Cells.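 On cell number change: cells counted by Cell Tracker Red CMTPX staining in the red channel.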 Particulars: BODIPY lipid droplet fluorescence, 18-24 h; for cell number change: measured here: cell count max response, cells fed with added oleic acid. An outline of the steps:
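Drosophila S3 cells loaded with oleic acid (400 uM, as added) and compounds at several concentrations; lipid droplets imaged by 488-nm laser-scanning cytometry, 500–530 nm intensity and object ratio to cell channel. Percent activity normalized to 20 uM Triacsin C.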

[1] abbreviates: measured here: lipid fluorescence (Fed channel) AC50, cells fed with added oleic acid.
[2] abbreviates: measured here: cell number channel AC50, cells fed with added oleic acid.

Turning to `CCOc1ccc(-c2nn[nH]n2)cc1`, the cell number change stood at 15.7%. For the same molecule, the AC50 under setting [1] was 2.06 µM [falling, partial curve].

`O=[N+]([O-])c1cn(Cc2ccccc2)cn1`: the cell number change is 16.6%. Besides, under setting [2], the AC50 is 0.411 µM [falling, single point]. For the same molecule, the AC50 under setting [1] was 0.58 µM [falling, single point].

As for `Cc1ccc(NCc2ccccc2O)c(C)c1`, the cell number change was -31.2%. The AC50 under setting [2] is 29.1 µM [falling, single point]. Moreover, under setting [1], the AC50 is 29.1 µM [falling, single point].

On to `Cc1ccccc1N1CCN(C(=S)c2ccccc2)CC1`, for which the cell number change was found to be 31.4%. In addition, the AC50 under setting [2] was 10.3 µM [rising, partial curve]. Further, the AC50 under setting [1] was 0.58 µM [rising, full curve].

Consider `O=c1c(-c2ccc3c(c2)OCCO3)c(C(F)(F)F)oc2cc(O)cc(O)c12`, for which the cell number change is -27.1%. In addition, the AC50 under setting [2] is 0.82 µM [falling, full curve, poor fit].

Consider `Cc1ccc(-c2nc(C(=O)NCC3CCCO3)cc3c2[nH]c2ccccc23)cc1` (stereo not given), for which the cell number change is 20.3%. Under setting [1], the AC50 is 0.517 µM [falling, full curve, poor fit].

As for `CCOc1cc(S(=O)(=O)N2CCN(C(=O)c3ccco3)CC2)ccc1F`, the cell number change was -21.8%. In addition, under setting [1], the AC50 was 2.91 µM [rising, single point].

Consider `O=C(Cn1c(=O)n(Cc2ccco2)c(=O)c2ccccc21)Nc1cccc(Cl)c1`, for which the cell number change was 49.8%. Besides, the AC50 under setting [2] is 2.06 µM [rising, partial curve]. The AC50 under setting [1] is 1.3 µM [rising, partial curve].

For the molecule `CCN(CC(=O)Nc1c(F)cccc1F)C(=O)/C=C/c1ccc(C)cc1`, the cell number change is -6.74%. In addition, the AC50 under setting [1] is 29.1 µM [falling, partial curve, poor fit].

In the case of `CCOc1ccc(Nc2nc(NCC(=O)O)nc(N)c2[N+](=O)[O-])cc1`, the cell number change is 10.2%. For the same molecule, under setting [1], the AC50 is 29.1 µM [rising, single point].

`CCN1CCc2nc(NC(=O)Cc3ccc4c(c3)OCCO4)sc2C1`: the cell number change is -3%. The AC50 under setting [1] is 0.146 µM [rising, full curve, poor fit].

Regarding `COc1cc(-c2cc(C(=O)Nc3cc(S(=O)(=O)N4CCOCC4)ccc3C)c3ccccc3n2)cc(OC)c1OC`, the cell number change is -3.5%.

As for `Cc1cc(C(=O)COC(=O)C2CCN(C(=O)c3ccc(Cl)cc3)CC2)c(C)n1CC1CCCO1` (stereo not given), the cell number change was 1.23%. Further, under setting [2], the half-maximal activity concentration (AC50) was 3.66 µM [falling, single point]. Besides, under setting [1], the AC50 is 29.1 µM [rising, single point].

Turning to `O=C(Cn1cnc2c(cnn2-c2ccc(F)cc2)c1=O)N1CCN(c2ccccc2F)CC1`, the cell number change is -0.323%.

On to `Nc1ccc(S(=O)C(F)(F)F)cc1` (stereo not given), for which the AC50 under setting [1] is 2.91 µM [rising, single point].

Consider `CCCCNC(=O)/C(C#N)=C/c1ccc(-c2ccc(S(=O)(=O)N3CCOCC3)cc2)o1`, for which the cell number change is 10.4%. Further, the AC50 under setting [2] was 7.31 µM [rising, single point]. Also, the AC50 under setting [1] is 20.6 µM [falling, single point].

On to `CC(=O)NCCNC(=O)c1ccc(NC2=NC3CS(=O)(=O)CC3S2)cc1` (stereo not given), for which the cell number change was -22.9%. Besides, the AC50 under setting [1] is 0.366 µM [falling, full curve, poor fit].

As to `C=CCN=c1scc(-c2ccccc2)n1/N=C/c1ccccn1`, the cell number change was -36.1%. Further, the AC50 under setting [2] is 29.1 µM [falling, single point].

For `O=C(CN(c1cccc([N+](=O)[O-])c1)S(=O)(=O)c1ccccc1)N1CCCCC1`, the cell number change was -23.8%. Also, the AC50 under setting [1] was 6.51 µM [rising, single point].

For `Cc1ccc(OCC(=O)N/N=C\c2ccc(-c3cccc(C(=O)O)c3)o2)c(C)c1`, the cell number change is -0.905%. Further, the AC50 under setting [1] is 29.1 µM [rising, single point].

As for `O=C1CN(c2ccccc2F)C(=O)CN1c1ccccc1F`, the cell number change is -6.95%.

As to `CCN(CCCNC(=O)Cn1ncc2c(=O)oc3ccccc3c21)c1cccc(C)c1`, the cell number change was -33.8%. Also, the AC50 under setting [2] was 23.1 µM [falling, partial curve, poor fit].

As to `Cn1c(CN2CCOCC2)nnc1SCC(N)=O`, the cell number change was -20.3%.

For `O=C1NC(c2cn(-c3ccccc3)nc2-c2cccs2)C(C(=O)c2cccnc2)C(O)(C(F)(F)F)N1` (stereo not given), the cell number change is 65%. Also, under setting [2], the AC50 is 2.91 µM [rising, partial curve, poor fit]. For the same molecule, the AC50 under setting [1] was 0.146 µM [rising, full curve, poor fit].

Take `CCCOc1ccccc1NS(=O)(=O)c1ccc2[nH]c(=O)[nH]c2c1`: the cell number change was determined as 16.7%. Moreover, under setting [1], the AC50 was 1.16 µM [falling, single point].

For the molecule `Cc1c(C(=O)N/N=C/c2ccoc2)cccc1[N+](=O)[O-]`, the cell number change was -34.7%. Moreover, under setting [2], the AC50 was 0.184 µM [falling, full curve, poor fit]. In addition, the AC50 under setting [1] was 0.58 µM [rising, single point].

As for `O=C(CCCCCNC(=O)N1CCn2c1nc1ccccc12)NCc1ccc(Cl)cc1`, the cell number change was determined as 3.23%. The AC50 under setting [2] is 0.00411 µM [rising, full curve, poor fit].

As to `CCCCSc1nc(SCC(=O)NCc2ccco2)c2c3c(sc2n1)COC(C)(CC)C3` (stereo not given), the cell number change is -21.2%. The AC50 under setting [1] was 1.46 µM [falling, partial curve].

For `Cn1c(-[n+]2c(-c3ccccc3)cc(-c3ccccc3)cc2-c2ccccc2)nc2c([N+](=O)[O-])cccc21`, the cell number change turned out to be 18.3%.

Turning to `O=C1C=C(NCc2ccco2)CCC1`, the cell number change was -18.6%. Also, under setting [2], the AC50 was 0.517 µM [falling, full curve, poor fit]. Besides, the AC50 under setting [1] is 14.6 µM [falling, single point].

Regarding `COc1ccccc1-n1nnnc1SCC(=O)NC1CC1`, under setting [2], the AC50 is 6.51 µM [rising, single point].

Regarding `O=C(O)c1cc(Br)ccn1`, the cell number change is 6.51%. The AC50 under setting [2] is 4.11 µM [falling, single point]. The AC50 under setting [1] is 4.61 µM [falling, single point].

Take `CCCC(C)C(=O)N(Cc1ccccc1)c1ccccn1` (stereo not given): the cell number change stood at 17.7%. Besides, the AC50 under setting [1] is 6.51 µM [falling, single point].

For `CCN(CC(=O)NC1CCS(=O)(=O)C1)S(=O)(=O)c1ccc(Cl)cc1C(F)(F)F` (stereo not given), the cell number change was 116%. Besides, the AC50 under setting [1] was 6.51 µM [falling, partial curve, poor fit].

Consider `CCn1c(=NC(=O)CS(=O)(=O)c2ccccc2)sc2cccc(OC)c21`, for which the cell number change was -24.3%. For the same molecule, the AC50 under setting [1] is 6.51 µM [falling, single point].

Consider `CC(=O)NC(c1ccccc1)c1nc2ccccc2[nH]1` (stereo not given), for which the cell number change was -19%. The AC50 under setting [1] is 29.1 µM [falling, single point].
